{"source": "PubChem BioAssay AID1259254 | NCATS, 2017", "screen": "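Gene knock-downs that lead to re-replication, shown by excess G2 DNA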 (primary screen)", "system": "human HCT116 colorectal cancer cells", "reagent": "single siRNA against human genes", "time to read-out": "3 days", "measurement": "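Imaged Hoechst DNA stain sorts each cell into a cycle phase by DNA amount; per plate, G2 fraction set to 0% for non-targeting and 100% for GMNN siRNA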", "direction": "G2 robust z-score: higher = more G2 cells, more excess DNA replication", "hit rule": "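An siRNA counts as active if its G2 robust z-score lies at least 5 MADs above the screen median; here such calls match roughly 38% of GMNN control or more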", "note": "The whole screen tested about 59,000 reagents; below is a random part of them. Of all reagents, about 1,550 (2.6%) got an active call. 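G2 share is only a proxy for re-replication; each gene was hit by three separate siRNAs, and active genes were retested.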 Reagents against one gene are numbered here. Further read-outs or replicates are left out here. Not given: the amount of reagent."}
{"gene knocked down":"TMEM231","siRNA no.":1,"G2 robust z-score":4.96,"outcome":"inactive"}
{"gene knocked down":"TMEM231","siRNA no.":2,"G2 robust z-score":-0.352,"outcome":"inactive"}
{"gene knocked down":"TMEM231","siRNA no.":3,"G2 robust z-score":-0.402,"outcome":"inactive"}
{"gene knocked down":"WSCD2","siRNA no.":1,"G2 robust z-score":-0.221,"outcome":"inactive"}
{"gene knocked down":"WSCD2","siRNA no.":2,"G2 robust z-score":4.92,"outcome":"inactive"}
{"gene knocked down":"WSCD2","siRNA no.":3,"G2 robust z-score":-0.979,"outcome":"inactive"}
{"gene knocked down":"KRTAP1-3","siRNA no.":1,"G2 robust z-score":-0.199,"outcome":"inactive"}
{"gene knocked down":"KRTAP1-3","siRNA no.":2,"G2 robust z-score":1.87,"outcome":"inactive"}
{"gene knocked down":"KRTAP1-3","siRNA no.":3,"G2 robust z-score":-0.801,"outcome":"inactive"}
{"gene knocked down":"CSNK1G2-AS1","siRNA no.":1,"G2 robust z-score":0.173,"outcome":"inactive"}
{"gene knocked down":"CSNK1G2-AS1","siRNA no.":2,"G2 robust z-score":-0.612,"outcome":"inactive"}
{"gene knocked down":"CSNK1G2-AS1","siRNA no.":3,"G2 robust z-score":-0.302,"outcome":"inactive"}

Targets above whose target name begins with T or t (3):
{"gene knocked down":"TMEM231","siRNA no.":1,"G2 robust z-score":4.96,"outcome":"inactive"}
{"gene knocked down":"TMEM231","siRNA no.":2,"G2 robust z-score":-0.352,"outcome":"inactive"}
{"gene knocked down":"TMEM231","siRNA no.":3,"G2 robust z-score":-0.402,"outcome":"inactive"}
